Laboratory results from US20080089860A1, “Therapeutic compositions and methods useful in treating cancer” (priority 2006, published 2008).
Some results were stated once for a whole list of compounds, not compound by compound.

Molecular target: T1, PTP1B (Homo sapiens, UniProt P18031)
T1 construct: purchased Upstate Biotechnology Inc. (Lake Placid, N.Y.)
T1 sequence (P18031 1-435): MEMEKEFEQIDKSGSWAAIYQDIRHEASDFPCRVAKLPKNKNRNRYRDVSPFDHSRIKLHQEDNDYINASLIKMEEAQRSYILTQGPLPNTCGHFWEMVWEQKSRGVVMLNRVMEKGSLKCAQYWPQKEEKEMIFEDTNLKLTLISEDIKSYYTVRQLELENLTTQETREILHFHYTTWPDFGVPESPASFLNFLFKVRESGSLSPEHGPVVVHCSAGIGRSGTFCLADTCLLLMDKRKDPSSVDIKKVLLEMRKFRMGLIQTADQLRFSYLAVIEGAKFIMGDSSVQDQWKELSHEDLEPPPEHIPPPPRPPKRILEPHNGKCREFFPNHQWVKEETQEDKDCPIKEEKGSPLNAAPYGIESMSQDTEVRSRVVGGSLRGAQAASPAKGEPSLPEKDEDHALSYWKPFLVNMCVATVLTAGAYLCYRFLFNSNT
Experiment: In vitro PTPase assay, GST/PTP1B
Format: biochemical
Conditions: 0.1 to 1 μg/ml
Experimental: In vitro PTPase activities were measured using the commercial protein tyrosine phosphatase assay kit (Upstate Biotechnology, Inc. (“UBI”)) following established procedure known to one of skill in the art. This assay measures the in vitro dephosphorylation of a synthetic phosphotyrosine peptide of the sequence Arg-Arg-Leu-Ile-Glu-Asp-Ala-Gle-T- -yr-Ala-Ala-Arg-Gly, wherein the tyrosine is phosphorylated (SEQ ID NO: 3). Briefly, 0.01 µg of GST/PTPase fusion proteins was incubated in 50 µl of Tris buffer (10 mM Tris, pH 7.4) containing different concentrations of inhibitors or chemicals (0-1,000 µg/ml) at 22° C. for 10 minutes, followed by addition of 0.2 mM of the phosphotyrosine peptide and incubation at 22° C. for 18 hours. 100 µl of Malachite Green solution was added and incubated for 5 minutes, and the absorbance at 660 nm was measured after 5 minutes.
In vitro PTPase assays were used to determine the effects of levamisole (Sigma), pentamidine (American Pharmaceutical Partners, Inc.), and ketoconazole (Sigma) on recombinant PTPases, following established procedures (Pathak et al., J. Imumol. 167, 3391 (2001); Pathak et al., Leukemia 16, 2285 (2002), Yi et al., J. Immunol. 169, 5978 (2002)) using a synthetic phosphotyrosine peptide or DiFMUP as the substrate as detailed above in section I.A.2.

CC(=O)N1CCN(c2ccc(OCC3COC(Cn4ccnc4)(c4ccc(Cl)cc4Cl)O3)cc2)CC1 (centres unmarked) [ketoconazole]
inhibition of PTP1B activity: 80-98%

N=C(N)c1ccc(OCCCCCOc2ccc(C(=N)N)cc2)cc1 [pentamidine]
inhibition of PTP1B activity: 80-98%
